Assay results from PubChem BioAssay AID504834 (National Center for Advancing Translational Sciences (NCATS), 2011).
About 22,000 (6.9%) of roughly 320,000 compounds were called active. Inconclusive means that the source gave no clear call. Such entries were picked first, then a sample of the others. The call rests on the fitted dose curve; in most records, active means well fitted inhibition curve with a large enough effect; inconclusive means small, poorly fitted or top-dose-only effect, or another doubt; inactive means no such curve, though single readings can be large or run the other way. Where the call is inconclusive, the potency comes from a doubtful curve fit.
Potency means the concentration at half of the fitted maximal effect.

Test: Primary qHTS for delayed death inhibitors of the malarial parasite plastid, 96 hour incubation
Conditions: P. falciparum luciferase reporter growth; series mostly up to 28.7 µM
Procedure, shortened: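 Plates of compound plus infected erythrocytes (2% hematocrit, 0.05% parasitemia final) incubate 96 hours, 37 C, 5% CO2. Detection reagent added; reduced luminescence from the parasites' luciferase reporter flags inhibition.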
In the case of CCOC(=O)c1ccc(N2C(=O)CC(Nc3ccc(CCO)cc3)C2=O)cc1 (stereo unspecified), the Potency is reported as “inactive”.
With Cc1ccc(CCNC(=O)CS(=O)Cc2nc(-c3cccc(C)c3)oc2C)cc1 (stereo unspecified) the Potency was inconclusive: 4.65 µM [inhibitor, partial curve, poor fit].
For Cc1cc(NC(=O)CSCC(=O)N2CCN(c3cccc(C(F)(F)F)c3)CC2)no1, the Potency was “inactive”.
With O=C(O)CCNc1ccc(Cl)cc1 the Potency was inconclusive: 20.8 µM [inhibitor, partial curve, poor fit].
With CC(C)(C)OC(=O)CN1C(=O)C(Sc2n[nH]c(-c3ccccc3)n2)CCc2ccccc21 (stereo unspecified) the Potency was active: 1.47 µM.
With CCCc1n[nH]c(=O)c2c1nnn2Cc1ccccc1F the Potency was inconclusive: 10.4 µM [inhibitor, single point].
With Cc1ccc(OCC(O)CNC(C)c2ccccc2)cc1C (stereo unspecified) the Potency was inconclusive: 18.5 µM [inhibitor, single point].
For C=CCn1cc(C(=O)NCCN(CC)CC)c(=O)c2cc(S(=O)(=O)N3CCCCCC3)ccc21, the Potency was active: 8.28 µM.
With O=C(CN1C(=O)c2ccccc2S1(=O)=O)NCc1cccnc1 the Potency was inconclusive: 18.5 µM [inhibitor, single point].
With Cc1c(O)ccc(NC(=O)/C=C/c2ccccc2)c1C the Potency was inconclusive: 1.85 µM [inhibitor, full curve].
In the case of Cc1ccc(-n2nnnc2CS(=O)(=O)c2ccccc2)c(C)c1, the Potency is reported as “inactive”.
For Cc1cc(C)c(S(=O)(=O)N2CCCCC2CCNC(=O)C(=O)NCc2cccnc2)c(C)c1 (stereo unspecified), the Potency was inconclusive: 10.4 µM [inhibitor, partial curve, poor fit].
With N#Cc1ccc(OCC(=O)N/N=C2/CC(c3ccccc3)Oc3ccccc32)cc1 (stereo unspecified) the Potency was inconclusive: 0.0415 µM [inhibitor, full curve, poor fit].
With Cc1cc(/C(=N/O)C(C)(C)NO)ccc1Cl the Potency was “inactive”.
In the case of Cc1nc2ccccc2c(=O)n1NCc1cccs1, the Potency is reported as inconclusive: 9.28 µM [inhibitor, partial curve, poor fit].
For O=C(/C=C/c1ccc2c(c1)OCO2)N1CCCCC1, the Potency was inconclusive: 13.1 µM [inhibitor, partial curve, poor fit].
For O=C(COC(=O)/C=C/c1ccc(OC(F)F)cc1)NCc1cccs1, the Potency was “inactive”.
With Cn1c(-c2ccc3c(c2)OCO3)cnc1NCc1cccc(O)c1 the Potency was inconclusive: 18.5 µM [inhibitor, single point].
In the case of COc1ccc(-c2nn(-c3ccccc3)cc2/C=N/Nc2ccc3ccccc3n2)cc1OC, the Potency is reported as active: 2.33 µM.
In the case of O=C(Nc1ccccc1)OC(CN1CCCCC1)C(F)(F)F (stereo unspecified), the Potency is reported as “inactive”.
In the case of COc1ccc(OC)c(-c2csc(N(Cc3ccco3)C(=O)c3cccs3)n2)c1, the Potency is reported as inconclusive: 10.4 µM [inhibitor, single point].
In the case of COc1cccc(-n2c(C)nnc2SCC(=O)Nc2ccccc2N2CCOCC2)c1, the Potency is reported as inconclusive: 0.0657 µM [inhibitor, full curve, poor fit].
In the case of CCOC(=O)Cc1csc(NC(=O)c2ccc(C)c(S(=O)(=O)N3CCOCC3)c2)n1, the Potency is reported as inconclusive: 18.5 µM [inhibitor, single point].
In the case of O=C1C(=O)N(CCS(=O)(=O)c2ccccc2)c2ccc(F)cc21, the Potency is reported as active: 9.28 µM.
For S=c1nc(-c2ccccc2)[nH]c2ccccc12, the Potency was inconclusive: 7.38 µM [inhibitor, partial curve].
With O=[N+]([O-])c1cccc(Cl)c1NCCNS(=O)(=O)c1ccccc1 the Potency was “inactive”.
For COc1ccc(OCc2cccc(C(=O)Nc3cc(C)on3)c2)cc1, the Potency was “inactive”.
With CCc1cccc(NC(=O)CSCc2nc3sc(C)c(C)c3c(=O)[nH]2)c1 the Potency was inconclusive: 10.4 µM [inhibitor, partial curve, poor fit].
For Cc1ccc(N2C(=O)CC(N3CCSCC3)C2=O)c(C)c1 (stereo unspecified), the Potency was “inactive”.
In the case of COc1cc2c(cc1OC)/C(=C/c1ccc(Cl)cc1)C(=O)OC2, the Potency is reported as inconclusive: 14.7 µM [inhibitor, partial curve].
For Cc1nn(-c2ccc(F)cc2)c(Cl)c1/C=N/NC(=O)c1cccs1, the Potency was inconclusive: 4.65 µM [inhibitor, partial curve, poor fit].
In the case of CC(C)CCNC(=S)Nc1ccc2nc3n(c(=O)c2c1)CCCCC3, the Potency is reported as inconclusive: 16.5 µM [inhibitor, single point].
In the case of COc1ccc(NC(=O)CN(C)C(=O)CCCc2c[nH]c3ccccc23)cc1, the Potency is reported as active: 10.4 µM.
In the case of Clc1ccccc1SCc1nc2ccccc2[nH]1, the Potency is reported as inconclusive: 18.5 µM [inhibitor, single point].
In the case of COc1ccc(CCC2(C)NC(=O)N(C(C)C(=O)Nc3ccccc3F)C2=O)cc1 (stereo unspecified), the Potency is reported as inconclusive: 18.5 µM [inhibitor, single point].
With CCOc1cc(Br)ccc1S(=O)(=O)N1CCC(C(N)=O)CC1 the Potency was inconclusive: 18.5 µM [inhibitor, single point].
With Cc1ccnc(SCC(=O)NC2CCCCCC2)n1 the Potency was “inactive”.
For COc1ccc(C(CNC(=O)c2oc3ccc(Cl)cc3c2C)N2CCCCC2)cc1 (stereo unspecified), the Potency was inconclusive: 16.5 µM [inhibitor, single point].
With COc1ccc(C2(C)NC(=O)N(CC(=O)Nc3ccc(Br)cc3F)C2=O)cc1OC (stereo unspecified) the Potency was active: 3.7 µM.
In the case of Cc1cc(Cl)c2oc(C(=O)N3CCCCC3CCN3CCCC3=O)c(C)c2c1 (stereo unspecified), the Potency is reported as inconclusive: 1.04 µM [inhibitor, single point].
In the case of C=CCN(c1ccccc1C(=O)O)S(=O)(=O)/C=C/c1ccccc1, the Potency is reported as inconclusive: 4.15 µM [inhibitor, single point].
With COc1cc2oc3ccccc3c2cc1N(CC(=O)N(C)C)S(=O)(=O)c1ccccc1 the Potency was inconclusive: 0.262 µM [inhibitor, full curve, poor fit].
With COc1ccc(-n2c(COc3cccc4ccccc34)nnc2SC(C)C(=O)O)cc1 (stereo unspecified) the Potency was inconclusive: 18.5 µM [inhibitor, single point].
In the case of CCc1ccc(OCc2ccc(C(=O)O)o2)cc1, the Potency is reported as “inactive”.
For Cc1sc2nc3ccc(N4CCCCC4)nn3c(=O)c2c1C, the Potency was inconclusive: 0.0029 µM [inhibitor, full curve, poor fit].
With O=C(O)CCc1ccc(-c2cccs2)n1NC(=O)c1ccc(Cl)cc1 the Potency was “inactive”.
For O=C(CSCc1ccccc1)Nc1ccc2c(c1)C(=O)NC2=O, the Potency was “inactive”.
With O=C(COC(=O)c1ccc(S(=O)(=O)N2CCOCC2)cc1)NC1CCCC1 the Potency was inconclusive: 11.7 µM [inhibitor, single point].
In the case of C[C@H](NC(=O)C1CCN(C(=O)[C@H](Cc2ccccc2)NC(=O)OC(C)(C)C)CC1)C(=O)O, the Potency is reported as “inactive”.
With O=C(CSc1ccc([N+](=O)[O-])cc1)NCC1CCCCC1 the Potency was “inactive”.
In the case of CC(Sc1nnc(NC2CC2)s1)C(=O)Nc1ccc(N2CCOCC2)cc1 (stereo unspecified), the Potency is reported as “inactive”.
In the case of C/C(CC(=O)Nc1ccc(Cl)cc1Cl)=N\NC(=O)c1cnccn1, the Potency is reported as “inactive”.
In the case of CCCCN(C(=O)c1ccc(N(C)S(=O)(=O)c2ccc(C)cc2)cc1)c1c(N)n(CCCC)c(=O)[nH]c1=O, the Potency is reported as inconclusive: 10.4 µM [inhibitor, single point].
With Clc1cccc(-c2ccc(/C=N/n3cnnc3)o2)c1Cl the Potency was “inactive”.
With O=C(Nc1cc(=O)c2ccccc2o1)N1CCCCC1 the Potency was active: 5.22 µM.
For O=C(N/N=C/c1ccccc1)c1ccc2c(c1)OCO2, the Potency was inconclusive: 4.15 µM [inhibitor, partial curve, poor fit].
In the case of COc1ccc(NC(=O)N2CCC3(CC2)OCCO3)cc1, the Potency is reported as inconclusive: 18.5 µM [inhibitor, single point].
For NNc1ccc(Cl)nn1, the Potency was inconclusive: 9.28 µM [inhibitor, partial curve].
In the case of O=C(NC1CCCCCCC1)c1cc(COc2ccc3ncccc3c2)on1, the Potency is reported as inconclusive: 11.7 µM [inhibitor, partial curve, poor fit].
In the case of CC(=O)NC(=S)Nc1cccc2ccc(C)nc12, the Potency is reported as inconclusive: 10.4 µM [inhibitor, single point].
In the case of O=C(N/N=C/C(Br)=C/c1ccccc1)c1ccccc1F, the Potency is reported as inconclusive: 11.7 µM [inhibitor, single point].
In the case of COc1ccc(S(=O)(=O)N2CCC(C(=O)NCc3ccc(C)cc3)CC2)cc1, the Potency is reported as inconclusive: 18.5 µM [inhibitor, single point].
In the case of Cc1ccc(-n2nc3c(=O)n(C(C)C(=O)NCCC4=CCCCC4)nc(C)c3c2C)cc1 (stereo unspecified), the Potency is reported as active: 9.28 µM.
In the case of CC1=NN(/C(=N\c2nnc(C)s2)Nc2ccc(C(C)(C)C)cc2)[C@H](c2ccc(C)cc2)S1, the Potency is reported as active: 6.57 µM.
In the case of COc1ccc(CN2CCN(Cc3cc(=O)oc4cc(C)ccc34)CC2)c(OC)c1OC, the Potency is reported as active: 9.28 µM.
With CCCCN(C)C(=O)c1ccc(S(=O)(=O)N2CCOCC2)cc1 the Potency was inconclusive: 16.5 µM [inhibitor, partial curve, poor fit].
For CC(C)(C)C(=O)/C(=C\c1ccc([N+](=O)[O-])cc1)n1cncn1, the Potency was inconclusive: 11.7 µM [inhibitor, single point].
In the case of CCCn1c(SCC(=O)Nc2nnc(CC)s2)nnc1-c1ccncc1, the Potency is reported as inconclusive: 5.86 µM [inhibitor, partial curve].
In the case of COc1ccc(F)cc1S(=O)(=O)NCC1CCCO1 (stereo unspecified), the Potency is reported as inconclusive: 5.86 µM [inhibitor, partial curve, poor fit].
For Nc1ccc(C(=O)OCCCc2nc3cc4ccccc4cc3[nH]2)cc1, the Potency was inconclusive: 18.5 µM [inhibitor, single point].
With Cc1ccc(-c2nc(C)sc2CC(=O)Nc2nnc(C)s2)cc1 the Potency was inconclusive: 6.57 µM [inhibitor, partial curve, poor fit].
